# Test results from the supplement of paper PMC8256030.
# Several values for one entry are separate records, joined by “and”; a condition that tells them apart may be missing. Equal entries are not always repeated. The list shows a part of the results. This data set is noisy: repeats of one test often differ as much as different tests do.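 HEK293T cells were given each compound shortly before transfection with a reporter in which red mCherry is followed by the SARS-CoV-2 frameshift element and then GFP in the −1 frame, so GFP appears only after frameshifting.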
# Tested on: HEK293T
# Assay: percent viability (nuclei count) relative to control; higher = more viable cells
# Details: 10 µM; 24 h
row,Compound,percent viability
1,CC(=O)O[C@]1(C(C)=O)CC[C@H]2[C@@H]3C=C(C)C4=CC(=O)CC[C@]4(C)[C@H]3CC[C@@]21C [Megestrol acetate],448%
2,C[C@@H](O)[C@H]1C(=O)N2C(C(=O)O)=C(S[C@@H]3CN[C@H](C(=O)N(C)C)C3)[C@H](C)[C@H]12 [Meropenem],126%
3,COC(=O)Nc1nc2cc(C(=O)c3ccc(F)cc3)ccc2[nH]1 [flubendazole],23.6%
4,Nc1nc(/C(=C/CC(=O)O)C(=O)N[C@@H]2C(=O)N3C(C(=O)O)=CCS[C@H]23)cs1 [ceftibuten],248%
5,Nc1nc(Cl)nc2c1ncn2[C@@H]1O[C@H](CO)[C@@H](O)[C@@H]1F [clofarabine],263% and 104%
6,Nc1ncnc(Nc2ccccc2)n1 [amanozine],32.7%
7,Cc1cc2c(OCC(O)CNC(C)C)cccc2[nH]1 (stereo not given) [mepindolol],273%
8,N[C@@H](Cc1ccc(O)cc1)C(=O)O,109%
9,CC(=O)Nc1c(I)cc(I)c(C(=O)O)c1I,233%
10,NC(N)=Nc1nc(CSCC/C(N)=N/S(N)(=O)=O)cs1,313%
11,CC(C)NC[C@H](O)COc1ccc(CCOCC2CC2)cc1 [levobetaxolol],178%
12,CCOC(=O)[C@@H](N)Cc1ccc(O)c(O)c1 [etilevodopa],252%
13,CC1(C)S[C@@H]2[C@H](NC(=O)[C@H](C(=O)O)c3ccsc3)C(=O)N2[C@H]1C(=O)O,399%
14,O=C1Nc2ccc(Cl)cc2[C@@](C#CC2CC2)(C(F)(F)F)O1 [efavirenz],186%
15,CC[N+](C)(C)Cc1ccccc1Br [bretylium tosilate],220%
16,O=C(C(Cl)Cl)N(CCO)Cc1ccc(Oc2ccc([N+](=O)[O-])cc2)cc1 [clefamide],107%
17,COc1c(O[C@@H]2O[C@H](CO)[C@@H](O)[C@H](O)[C@H]2O)cc2c(c1OC)-c1ccc(SC)c(=O)cc1[C@@H](NC(C)=O)CC2 [thiocolchicoside],56.6%
18,CCCCCCOC(=O)NC(=N)c1ccc(NCc2nc3cc(C(=O)N(CCC(=O)OCC)c4ccccn4)ccc3n2C)cc1,284%

# For reference, part of the list above.
row,Compound,percent viability
5,Nc1nc(Cl)nc2c1ncn2[C@@H]1O[C@H](CO)[C@@H](O)[C@@H]1F [clofarabine],263% and 104%
6,Nc1ncnc(Nc2ccccc2)n1 [amanozine],32.7%

# Further results

row,Compound,percent viability
1,C[C@]12CC[C@@H]3c4ccc(OC(=O)c5ccccc5)cc4CC[C@H]3[C@@H]1CC[C@@H]2O [estradiol benzoate],191%
2,CC(C)c1ncc([N+](=O)[O-])n1C [ipronidazole],104%
3,CO/N=C(\C(=O)N[C@@H]1C(=O)N2C(C(=O)O)=C(/C=C\c3scnc3C)CS[C@H]12)c1csc(N)n1 [Cefditoren],305%
4,Nc1nc(=O)c2c([nH]1)NC[C@@H](CNc1ccc(C(=O)N[C@@H](CCC(=O)O)C(=O)O)cc1)N2 [Tetrahydrofolate],180%
5,CN(C)CCC(c1ccc(Br)cc1)c1ccccn1 (stereo not given) [brompheniramine],74.9%
6,C=C1/C(=C\C=C2/CCC[C@]3(C)[C@@H]([C@H](C)OCCC(C)(C)O)CC[C@@H]23)C[C@@H](O)C[C@@H]1O [maxacalcitol],121%
7,CCNC(=O)[C@@H]1CCCN1C(=O)[C@H](CCCNC(=N)N)NC(=O)[C@H](CC(C)C)NC(=O)[C@@H](CC(C)C)NC(=O)[C@H](Cc1ccc(O)cc1)NC(=O)[C@H](CO)NC(=O)[C@H](Cc1c[nH]c2ccccc12)NC(=O)[C@H](Cc1c[nH]cn1)NC(=O)[C@@H]1CCC(=O)N1 [leuprorelin],163%
8,C/C=C/C1=C(C(=O)O)N2C(=O)[C@@H](NC(=O)[C@H](N)c3ccc(O)cc3)[C@H]2SC1,192%
9,O=C(CCCN1CCN2Cc3[nH]c4ccccc4c3CC2C1)c1ccc(F)cc1 (stereo not given) [biriperone],432%
10,CC(C)Nc1ncccn1 [isaxonine],357%
11,CN1CCN(C2=Nc3ccccc3Cc3ccccc32)CC1 [perlapine],77.7%
12,COc1ccc(-c2cc(C(F)F)nn2-c2ccc(S(N)(=O)=O)cc2)cc1F [deracoxib],319%
13,CNCCc1ccccn1 [betahistine],172%
14,CC(=O)Nc1c(I)cc(I)c(C(=O)O)c1I [sodium acetrizoate],108%
15,CC(C)OC(=O)C(C(=O)OC(C)C)=C1SC=CS1 [malotilate],260%
16,CCCCN(CCCC)CC(O)c1cc(Cl)cc2c1-c1ccc(Cl)cc1/C2=C/c1ccc(Cl)cc1 (stereo not given) [lumefantrine],233%
17,CO[C@@]1(NC(=O)CSCC#N)C(=O)N2C(C(=O)O)=C(CSc3nnnn3C)CS[C@@H]21,190%
